# Assay results published in paper doi:10.64898/2025.12.30.696908.
# The chains behind the UniProt entries cited, without tags or fusion partners.
# UniProt Q9CQ20: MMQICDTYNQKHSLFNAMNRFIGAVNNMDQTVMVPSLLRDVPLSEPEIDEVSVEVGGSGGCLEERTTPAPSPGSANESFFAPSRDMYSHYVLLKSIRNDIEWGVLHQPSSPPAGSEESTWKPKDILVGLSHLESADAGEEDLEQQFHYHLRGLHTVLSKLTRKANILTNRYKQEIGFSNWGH
# UniProt P19096: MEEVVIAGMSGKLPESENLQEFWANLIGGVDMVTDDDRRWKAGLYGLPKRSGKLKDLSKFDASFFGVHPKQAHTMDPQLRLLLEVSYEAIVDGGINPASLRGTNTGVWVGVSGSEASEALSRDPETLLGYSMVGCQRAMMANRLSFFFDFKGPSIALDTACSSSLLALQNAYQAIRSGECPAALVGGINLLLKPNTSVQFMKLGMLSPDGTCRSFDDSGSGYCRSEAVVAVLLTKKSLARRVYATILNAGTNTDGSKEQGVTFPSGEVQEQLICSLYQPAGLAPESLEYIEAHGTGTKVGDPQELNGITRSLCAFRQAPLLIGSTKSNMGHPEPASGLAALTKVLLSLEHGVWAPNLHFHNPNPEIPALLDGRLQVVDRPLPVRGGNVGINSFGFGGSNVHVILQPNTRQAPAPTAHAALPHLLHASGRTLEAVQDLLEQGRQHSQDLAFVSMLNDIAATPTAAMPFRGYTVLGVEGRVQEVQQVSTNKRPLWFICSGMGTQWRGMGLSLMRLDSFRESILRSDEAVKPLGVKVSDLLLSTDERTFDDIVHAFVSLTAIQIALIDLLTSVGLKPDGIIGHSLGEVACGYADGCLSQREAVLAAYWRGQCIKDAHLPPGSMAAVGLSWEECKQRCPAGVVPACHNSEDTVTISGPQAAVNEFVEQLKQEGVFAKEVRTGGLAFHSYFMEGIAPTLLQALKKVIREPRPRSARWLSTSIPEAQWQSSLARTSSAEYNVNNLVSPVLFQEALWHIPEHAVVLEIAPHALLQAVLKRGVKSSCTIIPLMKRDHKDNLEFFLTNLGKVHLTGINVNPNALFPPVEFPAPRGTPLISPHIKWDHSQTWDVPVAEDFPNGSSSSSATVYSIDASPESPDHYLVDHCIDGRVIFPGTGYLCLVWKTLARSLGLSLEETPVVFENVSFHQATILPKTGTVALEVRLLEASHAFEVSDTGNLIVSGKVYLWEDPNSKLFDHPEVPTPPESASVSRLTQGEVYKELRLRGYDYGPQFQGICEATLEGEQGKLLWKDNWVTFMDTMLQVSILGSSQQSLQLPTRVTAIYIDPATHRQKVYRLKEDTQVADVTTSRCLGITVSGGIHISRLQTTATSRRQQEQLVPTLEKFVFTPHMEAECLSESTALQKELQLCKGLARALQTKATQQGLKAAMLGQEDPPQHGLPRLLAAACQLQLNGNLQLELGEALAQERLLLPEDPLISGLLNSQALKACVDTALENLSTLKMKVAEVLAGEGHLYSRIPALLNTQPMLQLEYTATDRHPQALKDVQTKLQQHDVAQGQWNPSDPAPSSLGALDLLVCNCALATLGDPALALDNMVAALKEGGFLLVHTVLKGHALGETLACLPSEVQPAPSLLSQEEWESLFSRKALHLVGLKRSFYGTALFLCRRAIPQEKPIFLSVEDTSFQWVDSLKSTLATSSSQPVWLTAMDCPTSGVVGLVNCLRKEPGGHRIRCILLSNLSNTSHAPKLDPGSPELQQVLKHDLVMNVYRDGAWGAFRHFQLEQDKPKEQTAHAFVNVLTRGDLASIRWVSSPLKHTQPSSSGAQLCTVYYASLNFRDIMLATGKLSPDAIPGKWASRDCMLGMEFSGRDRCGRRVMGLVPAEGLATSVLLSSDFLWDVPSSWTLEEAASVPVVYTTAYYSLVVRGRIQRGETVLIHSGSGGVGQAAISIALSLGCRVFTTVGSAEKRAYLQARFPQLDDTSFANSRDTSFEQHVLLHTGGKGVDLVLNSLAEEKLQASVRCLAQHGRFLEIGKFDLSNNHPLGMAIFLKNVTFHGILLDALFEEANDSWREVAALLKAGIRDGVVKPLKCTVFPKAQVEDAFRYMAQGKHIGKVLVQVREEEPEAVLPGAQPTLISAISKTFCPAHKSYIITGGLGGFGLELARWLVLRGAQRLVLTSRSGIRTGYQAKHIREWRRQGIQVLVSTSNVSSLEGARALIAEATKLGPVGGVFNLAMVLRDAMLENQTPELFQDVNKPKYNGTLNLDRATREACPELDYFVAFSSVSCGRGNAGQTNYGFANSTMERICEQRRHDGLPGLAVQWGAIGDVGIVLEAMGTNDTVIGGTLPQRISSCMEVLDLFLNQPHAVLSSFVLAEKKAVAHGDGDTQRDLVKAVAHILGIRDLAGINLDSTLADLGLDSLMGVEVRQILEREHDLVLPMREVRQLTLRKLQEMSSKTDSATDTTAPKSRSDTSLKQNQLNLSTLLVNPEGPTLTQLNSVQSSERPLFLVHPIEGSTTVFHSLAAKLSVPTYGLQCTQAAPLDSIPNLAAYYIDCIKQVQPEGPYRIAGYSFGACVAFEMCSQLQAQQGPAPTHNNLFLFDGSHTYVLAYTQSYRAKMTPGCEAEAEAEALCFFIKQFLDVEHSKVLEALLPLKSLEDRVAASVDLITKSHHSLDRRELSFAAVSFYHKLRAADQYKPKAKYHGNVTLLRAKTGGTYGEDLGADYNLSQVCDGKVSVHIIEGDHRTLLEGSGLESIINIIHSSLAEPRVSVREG
# Target: T1, S14-Flag (UniProt Q62264)
# T1 sequence: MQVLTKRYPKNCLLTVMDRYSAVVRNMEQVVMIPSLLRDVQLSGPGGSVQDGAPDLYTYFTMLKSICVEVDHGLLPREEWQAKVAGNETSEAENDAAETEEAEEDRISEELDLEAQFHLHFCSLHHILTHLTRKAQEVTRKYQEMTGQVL
# Test: affinity purification with mass spectrometry; adenovirus expressing S14-Flag injected into mice, liver lysates 3 days later; anti-Flag immunoprecipitation; bands specific to the S14-Flag lanes (control: β-gal adenovirus) cut from silver-stained gels and analysed by LC-MS/MS
row,binding,Substance
1,binds,"MIG12, mouse liver (from UniProt Q9CQ20 1-182)"
2,binds,"fatty acid synthase (FAS), mouse liver (from UniProt P19096 1-2504) (enzyme)"
3,binds,"β-tubulin, mouse liver"

# No constants are given. Whether binding was seen depends on the method and setting. In cells and extracts the contact can be indirect. Here binding means that the protein was enriched with, or labelled near, the bait; the list need not be complete. Tags and fused reporters may be left off the sequences shown.
